From patent publication US12357627B2, “Pharmaceutical compositions of cabozantinib” (AZURITY PHARMACEUTICALS, INC., priority 2021, dated 2025)
At least one structure is not confirmed: it was looked up by name or label, or the drawing left a doubt.

Key:
[1] = cited from earlier work
[2] = Moisture uptake of amorphous cabozantinib and its solid dispersion compositions on storage at 25° C./60% RH; type: physicochemical

Row | SMILES | Biopharmaceutical Classification System (BCS) class [1] | hygroscopicity [2] | moisture absorbed after which amorphous form converts to crystalline form ([2]; stored at 25° C. and 60% RH)
1 | COc1cc2nccc(Oc3ccc(NC(=O)C4(C(=O)Nc5ccc(F)cc5)CC4)cc3)c2cc1OC [Cabozantinib] | class II |  | 
2 | COc1cc2nccc(Oc3ccc(NC(=O)C4(C(=O)Nc5ccc(F)cc5)CC4)cc3)c2cc1OC [Pure amorphous form of cabozantinib, cabozantinib] |  | highly hygroscopic | about 5%
